No constants are given. Whether binding was seen depends on the method and setting.
Biological target: bovine glutamate dehydrogenase (bovine) (UniProt P00366)
Assay: condition: only with 5 mM EGCG or trypsin (20–500 μg/mL); native gel or EMSA; native-PAGE of 2.5 mg/mL bovine GDH with 5 mM EGCG or with trypsin (20–500 μg/mL); both purified

Amino acid sequences for entries named in this document (tags omitted). Residues count along the entry.
UniProt P00366, residues 58-558: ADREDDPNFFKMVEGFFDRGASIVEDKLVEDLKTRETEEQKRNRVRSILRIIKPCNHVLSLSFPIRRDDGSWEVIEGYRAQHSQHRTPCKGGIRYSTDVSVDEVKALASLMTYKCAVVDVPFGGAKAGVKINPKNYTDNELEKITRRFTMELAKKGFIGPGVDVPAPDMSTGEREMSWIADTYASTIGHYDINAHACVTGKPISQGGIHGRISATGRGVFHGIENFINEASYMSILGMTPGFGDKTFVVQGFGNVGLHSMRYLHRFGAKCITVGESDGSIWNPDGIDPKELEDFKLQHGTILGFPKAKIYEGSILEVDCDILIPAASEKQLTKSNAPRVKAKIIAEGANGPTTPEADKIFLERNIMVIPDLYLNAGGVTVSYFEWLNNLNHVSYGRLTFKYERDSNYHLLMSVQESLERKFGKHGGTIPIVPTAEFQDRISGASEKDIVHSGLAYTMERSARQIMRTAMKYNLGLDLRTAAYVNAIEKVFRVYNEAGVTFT

- binding: no binding
Substance: bovine glutamate dehydrogenase (from UniProt P00366 58-558) (enzyme)
